Test results as given in patent EP1321467A2, “High affinity inhibitors for target validation and uses thereof” (Princeton University, priority 1999, dated 2000).
No constants are given. Whether binding was seen depends on the method and setting. Some results given as binding are weak or reduced against the parent protein; the word gives no strength. Tags and fused reporters may be left off the sequences shown.

Chains of the proteins cited; added tags and fusions are not shown. Lines headed by an entry give the natural chain unless they say otherwise; changes in a name come on top. A line that says so, or that is headed by a name, gives the form on record, which may keep a tag or linker.
UniProt P00546: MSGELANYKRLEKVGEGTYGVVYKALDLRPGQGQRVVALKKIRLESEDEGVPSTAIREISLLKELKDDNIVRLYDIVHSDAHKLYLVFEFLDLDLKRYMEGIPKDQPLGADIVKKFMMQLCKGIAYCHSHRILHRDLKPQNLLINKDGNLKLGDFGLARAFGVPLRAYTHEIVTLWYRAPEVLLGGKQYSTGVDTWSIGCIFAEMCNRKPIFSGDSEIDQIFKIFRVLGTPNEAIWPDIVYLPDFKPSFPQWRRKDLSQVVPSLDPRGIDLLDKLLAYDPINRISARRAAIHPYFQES
Cdc28-as1-His6 (P00546, form named): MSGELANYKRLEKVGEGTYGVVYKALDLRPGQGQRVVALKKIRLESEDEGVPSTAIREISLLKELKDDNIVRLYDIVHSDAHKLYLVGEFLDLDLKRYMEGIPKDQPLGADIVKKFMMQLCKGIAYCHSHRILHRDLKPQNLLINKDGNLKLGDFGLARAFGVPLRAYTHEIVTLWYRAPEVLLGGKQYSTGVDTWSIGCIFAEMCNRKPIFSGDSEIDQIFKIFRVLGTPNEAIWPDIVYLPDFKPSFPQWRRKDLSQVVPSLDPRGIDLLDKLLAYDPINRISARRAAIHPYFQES

Target: T1, MBP-Clb2 (Saccharomyces cerevisiae) (UniProt P24869)
T1 sequence (looked up): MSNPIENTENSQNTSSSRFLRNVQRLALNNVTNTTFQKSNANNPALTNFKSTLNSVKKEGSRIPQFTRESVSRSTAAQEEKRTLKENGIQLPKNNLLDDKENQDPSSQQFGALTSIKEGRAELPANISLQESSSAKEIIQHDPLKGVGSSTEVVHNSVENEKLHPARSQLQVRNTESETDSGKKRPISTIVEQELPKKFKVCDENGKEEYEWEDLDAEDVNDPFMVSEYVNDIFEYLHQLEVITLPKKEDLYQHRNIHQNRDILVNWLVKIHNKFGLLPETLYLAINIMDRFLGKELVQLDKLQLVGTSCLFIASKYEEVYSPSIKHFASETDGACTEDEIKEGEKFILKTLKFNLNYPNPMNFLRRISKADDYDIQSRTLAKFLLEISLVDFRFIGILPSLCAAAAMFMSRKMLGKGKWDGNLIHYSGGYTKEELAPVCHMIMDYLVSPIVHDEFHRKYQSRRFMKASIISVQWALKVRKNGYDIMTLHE
Test: purified proteins mixed; active cyclin-Cdk complex shown by Histone H1 kinase activity

Row | binding | Substance
1 | binds | Cdc28-His6 (from UniProt P00546 1-298) (enzyme)
2 | binds | Cdc28-as1-His6 (from UniProt P00546 1-298) (enzyme)
